Measured values as given in publication PMC6345439, “INDETERMINATE-DOMAIN 4 (IDD4) coordinates immune responses with plant-growth in Arabidopsis thaliana”.

How the values were obtained:
[1] = molecular target: T1, MBP-IDD4-DD (phospho-mimic, truncated) S73D,T130D (Arabidopsis thaliana) (UniProt Q8GYC1); experiment: competition with a labelled probe; conditions: unlabeled competitor up to 0.5 uM (100x excess) against N1, minor competition; LightShift Chemiluminescent EMSA kit instructions; 20 fmol biotinylated DNA, 1 ug protein; pH and temperature not stated; recombinant protein; residues 20-219; protein details: MBP
T1 sequence (looked up): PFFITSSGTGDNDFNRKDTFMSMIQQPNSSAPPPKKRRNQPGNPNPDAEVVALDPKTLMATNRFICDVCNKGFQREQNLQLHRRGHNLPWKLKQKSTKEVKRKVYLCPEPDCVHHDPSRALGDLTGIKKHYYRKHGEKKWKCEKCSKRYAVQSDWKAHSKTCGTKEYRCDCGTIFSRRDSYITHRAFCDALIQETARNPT

[2] = molecular target: T2, MBP-IDD4 (WT, truncated) (Arabidopsis thaliana) (UniProt Q8GYC1); experiment: EMSA; conditions: LightShift Chemiluminescent EMSA kit instructions; 20 fmol biotinylated DNA, 1 ug protein; pH and temperature not stated; recombinant protein; residues 20-219; protein details: MBP; label: 3' biotin
T2 sequence (looked up): T1 sequence (looked up) with D54S, D111T

[3] = molecular target: MBP-IDD4-AA (phospho-dead, truncated) S73A,T130A (Arabidopsis thaliana) (UniProt Q8GYC1); experiment: EMSA; conditions: LightShift Chemiluminescent EMSA kit instructions; 20 fmol biotinylated DNA, 1 ug protein; pH and temperature not stated; recombinant protein; residues 20-219; protein details: MBP; label: 3' biotin

Row | Sequence | binding result [1] | binding result [2] | binding result [3]
1 | ACATGGTCTCAGGAATAATGACTCAGGAATTAATA (double strand) [SAGT1 mutated ID1 competitor, unlabeled (mut; 396s/396as)] | binds more weakly | – | –
2 | ACATGGTAGACAAAATAATGAAGCCAAAATTAATA (double strand) [SAGT1 promoter ID1 probe (395s/395as)] | – | binds more weakly | binds more weakly

Residue numbers refer to the chain shown, from its start. A weaker result is weaker than the reference pair of the same experiment. For part of these data: Protein sequences can lack the tags named with them. For part of these data: For at least one entry, the source does not settle the construct or the ends of the probe.
